This is an account of results in publication PMC3750173, “Ferredoxin Competes with Bacterial Frataxin in Binding to the Desulfurase IscS*^([image sbox.jpg])” (The Journal of Biological Chemistry, 2013).

The chains behind the UniProt entries cited, without tags or fusion partners.
UniProt P0A6B7: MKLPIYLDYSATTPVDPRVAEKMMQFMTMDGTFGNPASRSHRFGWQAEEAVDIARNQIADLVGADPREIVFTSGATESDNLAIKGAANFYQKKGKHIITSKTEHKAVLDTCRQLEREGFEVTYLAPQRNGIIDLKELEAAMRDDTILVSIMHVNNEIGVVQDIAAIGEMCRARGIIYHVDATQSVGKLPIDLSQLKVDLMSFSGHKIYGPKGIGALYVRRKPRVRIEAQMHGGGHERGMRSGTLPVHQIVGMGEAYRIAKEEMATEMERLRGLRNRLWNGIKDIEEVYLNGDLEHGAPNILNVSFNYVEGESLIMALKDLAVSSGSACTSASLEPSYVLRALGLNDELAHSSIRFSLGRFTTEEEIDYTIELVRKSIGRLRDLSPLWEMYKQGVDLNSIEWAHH

The target in the assay is T1, holo-Fdx_D70K (E. coli) (UniProt P0A9R4).
T1 sequence (chain, [2Fe-2S] cluster bound (holo); 15N labelled): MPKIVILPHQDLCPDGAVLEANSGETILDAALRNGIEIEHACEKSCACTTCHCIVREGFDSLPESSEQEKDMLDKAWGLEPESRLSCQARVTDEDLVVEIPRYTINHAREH
Description: NMR titration; 15N-SOFAST HMQC of [15N]- or [15N/2H]Fdx or Fdx mutants titrated with unlabelled IscS or IscS mutants; 20 mM Tris, 150 mM NaCl, 20 mM TCEP, pH 8, 298 K; both purified.

Results are given in words; binding and its absence hold for the method and conditions named.

Regarding “IscS (E. coli desulfurase), wild type (from UniProt P0A6B7 1-404) (enzyme)”, the binding result was “no binding (tested: 2.5 molar eq of IscS)”.
